Laboratory results reported in article PMC4140012.
Results are given in words; binding and its absence hold for the method and conditions named. In cells and extracts the contact can be indirect. Binding calls can cover weak binding; strength is not graded here. For some assays here: Tags and fused reporters may be left off the sequences shown.

Amino acid sequences for entries named in this document (tags omitted). A change or cut given only in a name is not applied to a line headed by its entry.
UniProt Q8IQ27: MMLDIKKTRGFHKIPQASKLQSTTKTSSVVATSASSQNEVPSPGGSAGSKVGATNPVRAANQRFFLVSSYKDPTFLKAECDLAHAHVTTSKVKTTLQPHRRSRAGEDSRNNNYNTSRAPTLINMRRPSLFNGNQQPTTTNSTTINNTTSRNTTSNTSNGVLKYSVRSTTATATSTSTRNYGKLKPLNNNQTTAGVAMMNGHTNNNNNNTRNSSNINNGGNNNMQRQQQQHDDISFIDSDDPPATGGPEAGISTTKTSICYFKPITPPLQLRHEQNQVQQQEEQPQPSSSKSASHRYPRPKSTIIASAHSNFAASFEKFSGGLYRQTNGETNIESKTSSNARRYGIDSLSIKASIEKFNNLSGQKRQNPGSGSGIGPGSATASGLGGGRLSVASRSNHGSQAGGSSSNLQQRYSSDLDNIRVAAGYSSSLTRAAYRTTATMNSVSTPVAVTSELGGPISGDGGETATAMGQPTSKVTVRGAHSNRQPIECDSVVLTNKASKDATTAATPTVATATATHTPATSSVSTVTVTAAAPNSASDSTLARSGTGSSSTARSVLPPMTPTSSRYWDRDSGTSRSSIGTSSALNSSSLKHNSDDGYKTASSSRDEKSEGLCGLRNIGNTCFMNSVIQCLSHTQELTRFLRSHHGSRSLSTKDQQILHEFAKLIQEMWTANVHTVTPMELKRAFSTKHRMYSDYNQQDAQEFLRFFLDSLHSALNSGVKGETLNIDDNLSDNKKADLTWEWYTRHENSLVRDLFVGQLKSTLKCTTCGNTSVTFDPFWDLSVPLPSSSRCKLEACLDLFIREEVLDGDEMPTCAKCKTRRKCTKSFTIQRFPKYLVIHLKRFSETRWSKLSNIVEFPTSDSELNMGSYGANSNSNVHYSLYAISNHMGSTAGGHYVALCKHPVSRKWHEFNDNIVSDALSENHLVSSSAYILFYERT
UniProt O18413: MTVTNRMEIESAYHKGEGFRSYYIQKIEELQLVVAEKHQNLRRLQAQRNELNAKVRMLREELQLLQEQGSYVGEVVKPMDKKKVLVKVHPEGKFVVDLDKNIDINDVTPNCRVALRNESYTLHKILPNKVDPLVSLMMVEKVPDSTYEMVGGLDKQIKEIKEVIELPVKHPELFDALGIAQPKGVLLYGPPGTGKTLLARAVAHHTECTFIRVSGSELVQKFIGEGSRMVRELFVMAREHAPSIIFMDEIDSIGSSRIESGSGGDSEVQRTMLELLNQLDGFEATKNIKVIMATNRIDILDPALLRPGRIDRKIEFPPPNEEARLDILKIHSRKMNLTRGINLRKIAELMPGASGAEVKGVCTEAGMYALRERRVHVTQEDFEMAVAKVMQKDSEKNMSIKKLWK

How the values were obtained:
[1] = target: T1, V5-tagged Imd full length (Drosophila) (UniProt Q7K4Z4); test: co-IP; S2 cells cotransfected with USP2-Myc and V5-tagged Imd full length or truncated constructs; lysates precipitated with anti-V5 or anti-Myc, blotted with anti-Myc or anti-V5
T1 sequence: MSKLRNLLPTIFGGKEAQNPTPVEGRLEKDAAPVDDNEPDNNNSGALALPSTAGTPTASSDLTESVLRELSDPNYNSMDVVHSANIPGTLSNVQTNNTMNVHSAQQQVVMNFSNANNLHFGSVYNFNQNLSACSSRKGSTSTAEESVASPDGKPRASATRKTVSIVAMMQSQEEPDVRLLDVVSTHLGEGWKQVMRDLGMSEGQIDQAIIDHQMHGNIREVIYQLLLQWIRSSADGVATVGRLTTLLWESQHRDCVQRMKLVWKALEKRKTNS

[2] = target: Myc tagged full length USP2 (Drosophila) (UniProt Q8IQ27); test: co-IP; S2 cells cotransfected with pAc-USP2-Myc and either pAc-Imd or a control empty plasmid; anti-Myc IP, blot for endogenous Pros45

Substance: Myc tagged full length USP2 (from UniProt Q8IQ27-2) (enzyme)
- binding [1]: binds

Substance: proteasomal subunit 8 (Pros45) (from UniProt O18413 1-405)
- binding [2]: binds
